# Measurements from patent US7740775B2, “Method for the production of particles” (priority 2001, dated 2010).
# Some of these results come from one statement about several compounds together.
# Assay: Particle size of the isolated crystalline product observed under a microscope
# Conditions: two-stage mixing, co-precipitation of 6% w/v paracetamol and 0.1% w/v codeine from methanol (homogenous mixture)
row,Compound,crystal size [micron]
1,"COc1ccc2c3c1O[C@H]1[C@@H](O)C=C[C@H]4[C@@H](C2)N(C)CC[C@@]341 [codeine, reference compound]",< 1
2,"CC(=O)Nc1ccc(O)cc1 [paracetamol, N-acetyl-p-aminophenol, reference compound]",< 1
